Some of the results follow.
Legend:
Assay in all cases: log2 fold change, soluble protein after heating vs DMSO (PISA); higher = thermal stabilisation; K562 lysate, 10 uM; active = over 0.2 and 3.5 SD of the protein, either way, in both replicates (recomputed)
alvocidib = compound: CN1CC[C@H](c2c(O)cc(O)c3c(=O)cc(-c4ccccc4Cl)oc23)[C@H](O)C1 [alvocidib]
Method in brief: (§1)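 K562 pellets were dounce-homogenised in PBS pH 7.4 with 1 mM MgCl2, and the crude extract at 1 mg/mL protein was treated with 10 μM compound for 30 min. Aliquots were heated for 3 min across 48°C-58°C, pooled, and brought to 0.5% NP-40 at 4°C; soluble protein was the supernatant after 21,000xg for 90 min. Soluble protein was quantified by TMTpro 16plex LC-MS/MS with channel sums equalised, and reported as log2 fold change in thermal stability against DMSO controls, with values from duplicates.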

Chains of the proteins cited; added tags and fusions are not shown. Lines headed by an entry give the natural chain unless they say otherwise; changes in a name come on top.
UniProt Q9NWM8: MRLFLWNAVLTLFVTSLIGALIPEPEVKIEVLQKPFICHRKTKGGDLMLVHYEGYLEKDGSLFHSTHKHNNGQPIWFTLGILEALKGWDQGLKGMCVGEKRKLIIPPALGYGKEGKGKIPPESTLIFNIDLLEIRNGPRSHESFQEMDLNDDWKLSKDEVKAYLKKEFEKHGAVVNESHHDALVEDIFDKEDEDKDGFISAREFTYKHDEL
UniProt Q5T1M5: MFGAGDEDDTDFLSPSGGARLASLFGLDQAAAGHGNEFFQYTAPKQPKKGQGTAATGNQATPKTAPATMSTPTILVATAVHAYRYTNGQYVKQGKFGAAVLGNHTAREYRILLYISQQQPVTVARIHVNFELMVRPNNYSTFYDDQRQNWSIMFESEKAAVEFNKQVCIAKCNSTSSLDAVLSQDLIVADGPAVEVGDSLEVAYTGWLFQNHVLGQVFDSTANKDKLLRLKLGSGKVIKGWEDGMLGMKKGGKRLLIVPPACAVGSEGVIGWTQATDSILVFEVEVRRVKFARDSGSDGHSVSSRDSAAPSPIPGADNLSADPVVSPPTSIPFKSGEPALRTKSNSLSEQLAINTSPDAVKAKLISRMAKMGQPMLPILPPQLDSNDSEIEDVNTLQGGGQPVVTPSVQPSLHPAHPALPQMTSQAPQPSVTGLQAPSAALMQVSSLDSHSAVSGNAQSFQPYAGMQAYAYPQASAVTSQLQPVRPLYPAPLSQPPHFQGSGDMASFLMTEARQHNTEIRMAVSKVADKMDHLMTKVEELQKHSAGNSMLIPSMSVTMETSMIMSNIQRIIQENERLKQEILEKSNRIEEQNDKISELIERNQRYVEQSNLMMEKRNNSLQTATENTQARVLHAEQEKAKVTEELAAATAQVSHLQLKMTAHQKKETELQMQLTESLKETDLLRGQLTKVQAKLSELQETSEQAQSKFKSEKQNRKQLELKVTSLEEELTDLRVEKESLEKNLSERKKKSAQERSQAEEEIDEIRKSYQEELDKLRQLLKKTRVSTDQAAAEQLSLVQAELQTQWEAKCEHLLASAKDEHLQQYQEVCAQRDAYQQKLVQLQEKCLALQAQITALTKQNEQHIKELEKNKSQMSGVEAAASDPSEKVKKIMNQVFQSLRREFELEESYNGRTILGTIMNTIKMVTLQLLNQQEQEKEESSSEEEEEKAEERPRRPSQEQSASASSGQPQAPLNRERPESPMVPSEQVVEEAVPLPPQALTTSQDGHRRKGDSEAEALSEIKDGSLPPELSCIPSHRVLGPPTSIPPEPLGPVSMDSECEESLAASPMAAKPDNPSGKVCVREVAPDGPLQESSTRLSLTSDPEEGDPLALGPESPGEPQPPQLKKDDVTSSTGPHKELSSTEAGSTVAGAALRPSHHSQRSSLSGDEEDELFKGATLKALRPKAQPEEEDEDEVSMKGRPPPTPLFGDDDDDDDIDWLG
UniProt Q9HA64: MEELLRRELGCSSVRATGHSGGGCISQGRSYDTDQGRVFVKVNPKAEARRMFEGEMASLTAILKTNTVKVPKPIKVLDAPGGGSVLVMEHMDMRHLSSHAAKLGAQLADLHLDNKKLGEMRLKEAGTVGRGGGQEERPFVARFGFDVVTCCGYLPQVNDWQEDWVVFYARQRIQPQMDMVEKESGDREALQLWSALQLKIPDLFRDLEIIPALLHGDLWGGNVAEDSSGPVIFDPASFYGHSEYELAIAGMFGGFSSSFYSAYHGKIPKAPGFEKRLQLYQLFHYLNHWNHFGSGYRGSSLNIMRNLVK
UniProt Q9NRD1: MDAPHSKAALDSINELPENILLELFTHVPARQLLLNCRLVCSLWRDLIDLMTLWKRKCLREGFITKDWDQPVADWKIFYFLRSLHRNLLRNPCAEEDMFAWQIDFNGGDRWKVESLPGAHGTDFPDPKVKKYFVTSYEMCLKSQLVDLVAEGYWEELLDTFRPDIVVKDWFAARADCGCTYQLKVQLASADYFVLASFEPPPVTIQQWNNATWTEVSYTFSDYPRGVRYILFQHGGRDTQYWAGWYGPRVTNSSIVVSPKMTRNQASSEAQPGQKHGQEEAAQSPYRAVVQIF
UniProt P16591: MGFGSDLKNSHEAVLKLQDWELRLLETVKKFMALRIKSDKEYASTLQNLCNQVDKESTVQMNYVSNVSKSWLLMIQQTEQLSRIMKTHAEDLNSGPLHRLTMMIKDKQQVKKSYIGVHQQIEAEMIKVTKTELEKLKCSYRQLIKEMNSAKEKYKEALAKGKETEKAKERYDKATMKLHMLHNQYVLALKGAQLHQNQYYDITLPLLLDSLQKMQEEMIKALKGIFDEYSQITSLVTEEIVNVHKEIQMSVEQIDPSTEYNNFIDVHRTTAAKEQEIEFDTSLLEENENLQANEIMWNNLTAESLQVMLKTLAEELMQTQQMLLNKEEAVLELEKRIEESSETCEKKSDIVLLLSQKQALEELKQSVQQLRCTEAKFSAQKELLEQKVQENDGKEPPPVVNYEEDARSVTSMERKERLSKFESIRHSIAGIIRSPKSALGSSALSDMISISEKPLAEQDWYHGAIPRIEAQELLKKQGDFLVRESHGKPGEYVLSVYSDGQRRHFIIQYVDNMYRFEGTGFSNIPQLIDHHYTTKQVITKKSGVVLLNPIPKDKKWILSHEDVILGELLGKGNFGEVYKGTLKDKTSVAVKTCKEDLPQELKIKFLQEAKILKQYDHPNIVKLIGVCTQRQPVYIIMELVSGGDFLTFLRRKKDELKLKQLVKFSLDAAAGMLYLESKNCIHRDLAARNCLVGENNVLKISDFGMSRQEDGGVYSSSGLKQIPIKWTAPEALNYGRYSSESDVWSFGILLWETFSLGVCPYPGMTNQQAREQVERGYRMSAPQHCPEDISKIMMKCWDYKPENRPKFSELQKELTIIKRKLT
UniProt O75955: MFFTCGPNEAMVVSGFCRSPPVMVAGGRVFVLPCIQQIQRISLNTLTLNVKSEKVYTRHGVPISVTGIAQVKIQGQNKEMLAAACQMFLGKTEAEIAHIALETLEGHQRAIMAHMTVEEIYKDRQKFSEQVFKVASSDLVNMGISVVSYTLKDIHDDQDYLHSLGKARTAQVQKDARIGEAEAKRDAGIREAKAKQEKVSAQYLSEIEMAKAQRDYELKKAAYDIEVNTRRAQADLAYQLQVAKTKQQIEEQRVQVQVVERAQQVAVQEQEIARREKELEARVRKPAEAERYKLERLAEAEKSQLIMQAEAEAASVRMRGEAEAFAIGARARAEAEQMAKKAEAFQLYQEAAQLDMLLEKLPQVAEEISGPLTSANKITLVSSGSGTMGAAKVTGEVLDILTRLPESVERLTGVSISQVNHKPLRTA
UniProt Q96RU3: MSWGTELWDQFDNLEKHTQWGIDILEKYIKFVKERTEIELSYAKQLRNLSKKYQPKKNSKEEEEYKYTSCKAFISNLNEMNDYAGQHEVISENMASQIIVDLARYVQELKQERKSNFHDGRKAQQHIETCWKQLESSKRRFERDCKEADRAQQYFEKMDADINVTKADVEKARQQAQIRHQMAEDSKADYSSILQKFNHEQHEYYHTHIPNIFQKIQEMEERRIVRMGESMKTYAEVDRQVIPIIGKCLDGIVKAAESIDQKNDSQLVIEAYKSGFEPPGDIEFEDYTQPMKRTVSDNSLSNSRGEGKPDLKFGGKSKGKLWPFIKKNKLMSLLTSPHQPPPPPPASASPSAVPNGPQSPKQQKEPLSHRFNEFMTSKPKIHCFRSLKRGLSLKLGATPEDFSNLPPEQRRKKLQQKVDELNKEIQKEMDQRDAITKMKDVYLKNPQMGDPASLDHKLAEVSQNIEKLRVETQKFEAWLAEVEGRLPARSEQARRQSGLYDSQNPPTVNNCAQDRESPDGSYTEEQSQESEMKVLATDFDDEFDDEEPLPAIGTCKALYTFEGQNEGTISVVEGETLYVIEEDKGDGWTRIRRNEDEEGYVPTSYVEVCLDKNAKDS
UniProt Q13643: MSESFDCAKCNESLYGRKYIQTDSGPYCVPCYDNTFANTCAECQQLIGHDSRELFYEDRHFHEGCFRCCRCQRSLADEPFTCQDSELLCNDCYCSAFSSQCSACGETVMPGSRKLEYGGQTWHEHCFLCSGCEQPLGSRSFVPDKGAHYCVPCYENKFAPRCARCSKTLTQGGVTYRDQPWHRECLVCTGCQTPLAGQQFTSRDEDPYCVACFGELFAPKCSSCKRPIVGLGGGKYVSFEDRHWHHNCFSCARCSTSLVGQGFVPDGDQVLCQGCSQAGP
UniProt Q9NXK8: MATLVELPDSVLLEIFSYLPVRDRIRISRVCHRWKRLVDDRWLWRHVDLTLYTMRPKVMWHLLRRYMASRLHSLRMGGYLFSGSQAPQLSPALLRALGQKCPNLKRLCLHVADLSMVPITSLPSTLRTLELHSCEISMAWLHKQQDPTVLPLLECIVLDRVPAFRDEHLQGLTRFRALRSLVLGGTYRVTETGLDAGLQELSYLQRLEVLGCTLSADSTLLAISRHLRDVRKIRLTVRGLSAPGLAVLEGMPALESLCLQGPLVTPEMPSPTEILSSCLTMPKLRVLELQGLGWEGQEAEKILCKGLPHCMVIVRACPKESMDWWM
UniProt Q9UIM3: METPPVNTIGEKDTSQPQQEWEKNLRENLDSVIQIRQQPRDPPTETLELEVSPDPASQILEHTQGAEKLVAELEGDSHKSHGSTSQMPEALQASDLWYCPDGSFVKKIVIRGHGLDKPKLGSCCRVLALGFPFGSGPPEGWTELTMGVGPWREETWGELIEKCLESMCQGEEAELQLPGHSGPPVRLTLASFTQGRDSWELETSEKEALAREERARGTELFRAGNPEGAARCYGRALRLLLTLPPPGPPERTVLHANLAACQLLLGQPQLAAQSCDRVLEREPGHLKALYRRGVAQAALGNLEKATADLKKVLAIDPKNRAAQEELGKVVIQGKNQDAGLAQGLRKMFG
UniProt Q9NVI1: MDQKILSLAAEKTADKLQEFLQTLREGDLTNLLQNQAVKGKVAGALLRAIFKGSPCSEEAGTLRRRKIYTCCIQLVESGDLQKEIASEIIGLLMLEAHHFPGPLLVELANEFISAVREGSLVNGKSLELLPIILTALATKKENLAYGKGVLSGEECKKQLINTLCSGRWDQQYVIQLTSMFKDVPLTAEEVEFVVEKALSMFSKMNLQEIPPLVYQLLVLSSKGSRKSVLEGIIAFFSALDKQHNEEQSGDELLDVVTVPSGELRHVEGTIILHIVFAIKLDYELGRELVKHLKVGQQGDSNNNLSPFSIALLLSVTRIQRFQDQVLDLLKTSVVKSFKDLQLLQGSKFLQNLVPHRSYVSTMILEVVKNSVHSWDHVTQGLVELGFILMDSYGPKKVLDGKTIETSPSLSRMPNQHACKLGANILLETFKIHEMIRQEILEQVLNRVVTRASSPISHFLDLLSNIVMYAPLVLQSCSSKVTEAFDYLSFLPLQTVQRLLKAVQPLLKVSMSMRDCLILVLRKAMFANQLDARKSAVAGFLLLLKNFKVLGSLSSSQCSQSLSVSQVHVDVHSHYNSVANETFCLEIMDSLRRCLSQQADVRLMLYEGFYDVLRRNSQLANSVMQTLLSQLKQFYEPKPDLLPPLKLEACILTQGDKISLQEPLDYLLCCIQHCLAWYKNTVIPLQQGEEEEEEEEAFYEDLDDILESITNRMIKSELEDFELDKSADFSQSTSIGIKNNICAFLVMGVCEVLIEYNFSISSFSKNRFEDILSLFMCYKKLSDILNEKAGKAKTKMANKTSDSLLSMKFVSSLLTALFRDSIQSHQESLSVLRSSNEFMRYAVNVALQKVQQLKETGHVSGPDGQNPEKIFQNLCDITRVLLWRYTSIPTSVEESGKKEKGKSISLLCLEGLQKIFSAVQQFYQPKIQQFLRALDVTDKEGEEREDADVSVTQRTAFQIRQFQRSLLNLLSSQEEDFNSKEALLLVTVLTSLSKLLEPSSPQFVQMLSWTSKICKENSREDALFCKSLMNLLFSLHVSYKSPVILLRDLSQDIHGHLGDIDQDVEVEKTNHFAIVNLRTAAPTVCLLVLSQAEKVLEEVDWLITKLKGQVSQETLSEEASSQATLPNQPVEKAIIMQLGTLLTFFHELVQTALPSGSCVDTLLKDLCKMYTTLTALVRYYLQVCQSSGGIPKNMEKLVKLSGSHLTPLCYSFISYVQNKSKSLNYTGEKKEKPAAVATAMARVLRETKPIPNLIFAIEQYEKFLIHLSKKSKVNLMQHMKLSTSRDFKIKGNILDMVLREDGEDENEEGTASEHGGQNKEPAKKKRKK
UniProt A6NHQ2: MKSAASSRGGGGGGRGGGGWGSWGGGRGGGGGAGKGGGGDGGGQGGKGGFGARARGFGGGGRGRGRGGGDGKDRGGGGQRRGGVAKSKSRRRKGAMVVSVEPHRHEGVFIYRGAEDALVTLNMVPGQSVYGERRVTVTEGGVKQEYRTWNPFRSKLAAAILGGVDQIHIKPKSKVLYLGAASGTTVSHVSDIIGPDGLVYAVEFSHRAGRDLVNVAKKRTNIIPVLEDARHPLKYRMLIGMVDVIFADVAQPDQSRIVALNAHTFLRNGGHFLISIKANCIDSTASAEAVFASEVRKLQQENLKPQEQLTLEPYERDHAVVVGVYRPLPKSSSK

Tubastatin A = compound: CN1CCc2c(c3ccccc3n2Cc2ccc(C(=O)NO)cc2)C1 [Tubastatin A]
Method in brief: as §1

[1] = compound: CNC(=O)C1=CC=CC=C1NC2=NC(=NC=C2Cl)NC3=C(C=C(C=C3)N4CCOCC4)OC
Method in brief: as §1

defactinib = compound: CNC(=O)c1ccc(Nc2ncc(C(F)(F)F)c(NCc3nccnc3N(C)S(C)(=O)=O)n2)cc1 [defactinib]
Method in brief: as §1

[2] = compound: CNc1nc(-c2ccc3c(N)n[nH]c3c2)cc(N2C[C@@H](C(=O)NC3CCCCC3)CC[C@H]2C)n1
Method in brief: as §1

encorafenib = compound: COC(=O)N[C@@H](C)CNc1nccc(-c2cn(C(C)C)nc2-c2cc(Cl)cc(NS(C)(=O)=O)c2F)n1 [encorafenib]
Method in brief: as §1

[3] = compound: COC(=O)[C@H](CCSC)NC(=O)C1=C(C=C(C=C1)NC[C@H](CS)N)C2=CC=CC=C2
Method in brief: as §1

alisertib = compound: COc1cc(Nc2ncc3c(n2)-c2ccc(Cl)cc2C(c2c(F)cccc2OC)=NC3)ccc1C(=O)O [alisertib]
Method in brief: as §1

[4] = compound: COc1cc2nc(-c3cc(F)ccc3O)nc(N[C@@H]3CNC[C@H]3C(C)(C)O)c2cc1OC
Method in brief: as §1

gefitinib = compound: COc1cc2ncnc(Nc3ccc(F)c(Cl)c3)c2cc1OCCCN1CCOCC1 [gefitinib]
Method in brief: as §1

Measured: log2 fold change

FAT3 isoform 1 (UniProt Q8TDW7)
inactive: alvocidib 0.022 | Tubastatin A -0.053 | [1] -0.059 | defactinib -0.084 | [2] 0.012 | encorafenib -0.053 | [3] -0.02 | alisertib 0.025 | [4] -0.021 | gefitinib -0.01

FKBP14 (UniProt Q9NWM8)
inactive: alvocidib 0.031 | Tubastatin A 0.042 | [1] -0.006 | defactinib 0.037 | [2] 0.019 | encorafenib 0.035 | [3] -0.054 | alisertib -0.01 | [4] -0.041 | gefitinib 0.062

FDXR isoform 7 (UniProt P22570)
inactive: alvocidib 0.028 | Tubastatin A -0.07 | [1] 0.009 | defactinib 0.009 | [2] 0.016 | encorafenib -0.012 | [3] 0.165 | alisertib 0.007 | [4] -0.025 | gefitinib -0.012

FAM98A (UniProt Q8NCA5)
inactive: alvocidib 0.042 | Tubastatin A -0.04 | [1] 0.028 | defactinib 0.01 | [2] 0.086 | encorafenib -0.004 | [3] 0.025 | alisertib -0.028 | [4] -0.014 | gefitinib 0.037

FGFR1OP2 (UniProt Q9NVK5)
inactive: alvocidib -0.03 | Tubastatin A 0.018 | [1] 0.029 | defactinib 0.029 | [2] -0.084 | encorafenib 0.041 | [3] -0.038 | alisertib 0.052 | [4] 0.023 | gefitinib -0.022

FKBP15 (UniProt Q5T1M5)
inactive: alvocidib -0.014 | Tubastatin A 0 | [1] -0.021 | defactinib -0.011 | [2] 0.054 | encorafenib 0.017 | [3] -0.007 | alisertib 0.003 | [4] 0.059 | gefitinib 0.025

FAM91A1 (UniProt Q658Y4)
inactive: alvocidib 0.026 | Tubastatin A 0.002 | [1] -0.009 | defactinib 0.022 | [2] 0.035 | encorafenib -0.017 | [3] -0.026 | alisertib 0.012 | [4] 0 | gefitinib 0.008

FN3KRP (UniProt Q9HA64)
inactive: alvocidib 0.02 | Tubastatin A 0.046 | [1] -0.006 | defactinib 0.04 | [2] 0.012 | encorafenib -0.011 | [3] -0.063 | alisertib -0.061 | [4] 0.015 | gefitinib 0.02

FBXO6 (UniProt Q9NRD1)
inactive: alvocidib -0.009 | Tubastatin A -0.03 | [1] 0.036 | defactinib 0.065 | [2] 0.016 | encorafenib -0.023 | [3] 0.067 | alisertib 0.02 | [4] -0.008 | gefitinib 0.004

FER (UniProt P16591)
inactive: alvocidib -0.044 | Tubastatin A 0.048 | [1] 0.511 | defactinib 0.083 | [2] -0.108 | encorafenib -0.072 | [3] 0.03 | alisertib -0.399 | [4] -0.108 | gefitinib 0.95

FLOT1 (UniProt O75955)
inactive: alvocidib 0.011 | Tubastatin A 0.114 | [1] 0.002 | defactinib -0.002 | [2] -0.017 | encorafenib -0.042 | [3] -0.024 | alisertib -0.015 | [4] 0.045 | gefitinib 0

FANCD2 isoform 1 (UniProt Q9BXW9)
inactive: alvocidib 0 | Tubastatin A -0.082 | [1] -0.001 | defactinib -0.044 | [2] 0.147 | encorafenib -0.059 | [3] 0.096 | alisertib 0.001 | [4] 0.023 | gefitinib 0.009

FGD6 (UniProt Q6ZV73)
inactive: alvocidib 0.168 | Tubastatin A 0.151 | [1] -0.004 | defactinib -0.102 | [2] 0.063 | encorafenib 0.499 | [3] 0.206 | alisertib -0.672 | [4] -0.095 | gefitinib 1.14

FNBP1 (UniProt Q96RU3)
inactive: alvocidib -0.131 | Tubastatin A -0.041 | [1] -0.073 | defactinib 0.015 | [2] -0.091 | encorafenib 0.052 | [3] 0.058 | alisertib -0.043 | [4] 0.004 | gefitinib -0.066

FKBP1A (UniProt P62942)
inactive: alvocidib -0.296 | Tubastatin A 0.047 | [1] 0.06 | defactinib 0.144 | [2] 0.034 | encorafenib 0.005 | [3] -0.061 | alisertib 0.105 | [4] -0.076 | gefitinib -0.003

FBXO2 (UniProt Q9UK22)
inactive: alvocidib -0.002 | Tubastatin A -0.089 | [1] 0.141 | defactinib -0.122 | [2] -0.101 | encorafenib -0.046 | [3] 0.071 | alisertib 0.153 | [4] 0.074 | gefitinib 0.118

FHL3 (UniProt Q13643)
inactive: alvocidib 0.006 | Tubastatin A 0.025 | [1] 0.002 | defactinib -0.013 | [2] 0.036 | encorafenib -0.002 | [3] -0.083 | alisertib -0.025 | [4] -0.004 | gefitinib -0.085

FLNA (UniProt P21333)
inactive: alvocidib -0.016 | Tubastatin A 0.007 | [1] -0.001 | defactinib -0.005 | [2] 0.007 | encorafenib -0.034 | [3] -0.049 | alisertib 0.004 | [4] 0.009 | gefitinib -0.023

FBXL12 (UniProt Q9NXK8)
inactive: alvocidib -0.004 | Tubastatin A 0.078 | [1] -0.014 | defactinib 0.022 | [2] 0.074 | encorafenib 0.057 | [3] 0.055 | alisertib 0.031 | [4] 0.061 | gefitinib -0.016

FNIP1 isoform 3 (UniProt Q8TF40)
inactive: alvocidib -0.026 | Tubastatin A -0.006 | [1] -0.06 | defactinib 0.02 | [2] -0.038 | encorafenib -0.043 | [3] 0.011 | alisertib -0.019 | [4] 0.046 | gefitinib 0.039

FKBPL (UniProt Q9UIM3)
inactive: alvocidib -0.013 | Tubastatin A -0.022 | [1] 0.011 | defactinib 0 | [2] -0.011 | encorafenib -0.004 | [3] 0.016 | alisertib 0.026 | [4] -0.021 | gefitinib -0.024

FAM8A1 (UniProt Q9UBU6)
inactive: alvocidib -0.001 | Tubastatin A 0.088 | [1] 0 | defactinib 0.043 | [2] 0.019 | encorafenib -0.065 | [3] 0.021 | alisertib -0.087 | [4] -0.032 | gefitinib -0.008

Random excerpt: two records from the list, in no set order.
FAM8A1 (UniProt Q9UBU6)
inactive: alvocidib -0.001 | Tubastatin A 0.088 | [1] 0 | defactinib 0.043 | [2] 0.019 | encorafenib -0.065 | [3] 0.021 | alisertib -0.087 | [4] -0.032 | gefitinib -0.008

FNIP1 isoform 3 (UniProt Q8TF40)
inactive: alvocidib -0.026 | Tubastatin A -0.006 | [1] -0.06 | defactinib 0.02 | [2] -0.038 | encorafenib -0.043 | [3] 0.011 | alisertib -0.019 | [4] 0.046 | gefitinib 0.039

Additional records.

FANCI (UniProt Q9NVI1)
inactive: alvocidib 0.063 | Tubastatin A -0.097 | [1] 0.014 | defactinib 0.01 | [2] -0.036 | encorafenib 0.002 | [3] 0.052 | alisertib 0 | [4] 0.01 | gefitinib -0.002

FBLL1 (UniProt A6NHQ2)
inactive: alvocidib -0.009 | Tubastatin A -0.049 | [1] -0.036 | defactinib 0.047 | [2] 0.081 | encorafenib 0.042 | [3] 0.056 | alisertib 0.012 | [4] 0.005 | gefitinib 0.035

FBXW9 (UniProt Q5XUX1)
inactive: alvocidib -0.002 | Tubastatin A 0.005 | [1] 0.001 | defactinib 0.017 | [2] 0.039 | encorafenib 0.012 | [3] -0.216 | alisertib 0.015 | [4] -0.015 | gefitinib 0.002

FNBP4 isoform 2 (UniProt Q8N3X1)
inactive: alvocidib -0.032 | Tubastatin A 0.006 | [1] -0.019 | defactinib 0.001 | [2] -0.025 | encorafenib 0.048 | [3] -0.082 | alisertib 0.014 | [4] 0.017 | gefitinib 0.038

Reference: the supplement of paper PMC10849652
